The whole screen tested about 300,000 compounds, of which about 3,700 (1.2%) were called active. Inconclusive results, whose numbers are uncertain, are shown with a selection of clear calls. Calls come from the whole dose curve; tested in HEK293 cells. A potency beside an inconclusive call is a rough fit, not a confirmed value.
Assay: qHTS for Inhibitors of binding or entry into cells for Lassa Virus; note: nearly all actives have a fitted effect of over 50% in size
Details: Lassa virus pseudotype entry inhibition, cell reporter; activity change, negative = inhibition: at 37.9 µM (top of the series) unless noted
In the case of `CS(=O)(=O)CCNCc1ccc(-c2ccc3ncnc(Nc4ccc(OCc5ccccc5)c(C(F)(F)F)c4)c3c2)o1`, the Potency is reported as inconclusive: 31.5 µM [inhibitor, partial curve, poor fit].
For `COC(=O)c1cccc(Nc2c(-c3ccc(O)c(OC)c3)nc3nc[nH]n23)c1`, the “activity change, negative = inhibition” value was inactive: -26.7% [at 46.1 µM].
With `CCOc1nc(-c2ccccc2)ccc1-c1noc(COC)n1` the Potency was inconclusive: 23.1 µM [inhibitor, single point].
For `CN(C)CCCN(C(=O)CCS(=O)(=O)c1ccccc1)c1nc2cc3c(cc2s1)OCO3`, the Potency was inconclusive: 14.1 µM [inhibitor, partial curve, poor fit].
In the case of `CCOC(=O)c1c(NC(=O)c2cc(-c3ccc(Cl)s3)nc3ccccc23)sc(C(N)=O)c1C`, the “activity change, negative = inhibition” value is reported as inactive: -0.481%.
For `O=C(Cc1ccc(-n2cccc2)cc1)NC1CCCCCC1`, the “activity change, negative = inhibition” value was inactive: -15.9%.
In the case of `COc1ccc(NS(=O)(=O)c2ccc(C)c(C(=O)N3CCCCCCC3)c2)cc1`, the “activity change, negative = inhibition” value is reported as inactive: -0.842%.
In the case of `O=C(Nc1ccc(NC(=O)C2CC2)cc1)c1cccs1`, the “activity change, negative = inhibition” value is reported as inactive: -14.4% [at 46.1 µM].
For `CCc1cccc(CC)c1-n1c(SCC(=O)N2CCc3ccccc3C2)nnc1-c1cccnc1`, the Potency was inconclusive: 32.6 µM [inhibitor, single point].
For `COc1ccc([N+](=O)[O-])cc1NC(=O)c1cn(-c2ccc(C)c(C)c2)c(=O)c2ccccc12`, the “activity change, negative = inhibition” value was inactive: -0.0063%.
For `CC(C)OCCCNC(=O)c1ccc(-n2c(-c3ccccc3)cc3c2CCCC3)cc1`, the Potency was inconclusive: 14.1 µM [inhibitor, partial curve, poor fit].
For `CCOC(=O)c1c(C)[nH]c2cc(Br)c(O)cc12`, the “activity change, negative = inhibition” value was inactive: -0.097%.
For `CC(C)CN1CCc2nc(N3CCN(c4ncccn4)CC3)ncc2C1`, the Potency was inconclusive: 0.562 µM [activator, full curve, poor fit].
For `CCOc1cc(Cl)c(NC(=O)CC)cc1OCC`, the Potency was inconclusive: 0.731 µM [inhibitor, partial curve, poor fit].
With `Cc1cn2c(=O)c(S(=O)(=O)NCCc3ccccc3)c(C)nc2s1` the “activity change, negative = inhibition” value was inactive: -2.16% [at 46.1 µM].
In the case of `COc1cccc(-n2ccn(CC(=O)NCCc3ccccc3)c(=O)c2=O)c1`, the Potency is reported as inconclusive: 8.91 µM [activator, partial curve].
With `COc1cccc(C(=O)C2CCCN(Cc3cccn3-c3ccccn3)C2)c1` (stereo unspecified) the Potency was inconclusive: 35.5 µM [inhibitor, single point].
With `O=C(c1ccco1)N1CCN(C(=O)c2cc3sccc3n2Cc2ccccc2)CC1` the Potency was inconclusive: 3.26 µM [inhibitor, full curve, poor fit].
For `CCN1C(=O)c2cccc3c(NC(=O)c4cccc(N5C(=O)CCC5=O)c4)ccc1c23`, the “activity change, negative = inhibition” value was inactive: -0.828%.
For `CCOc1ccc(-c2nnc(SCC(=O)NCCC(C)C)nc2-c2ccc(OCC)c(OC)c2)cc1OC`, the Potency was inconclusive: 12.6 µM [inhibitor, single point].
For `CC(NCc1ccc(OCc2ccc(Cl)cc2)cc1)C(O)c1ccccc1` (stereo unspecified), the Potency was inconclusive: 35.5 µM [inhibitor, single point].
In the case of `O=C(Cc1ccccc1)NNC(=O)c1ccc(NC(=O)c2ccccc2)cc1`, the “activity change, negative = inhibition” value is reported as inactive: -12.5% [at 46.1 µM].
With `CN1C[C@H](CNC(=O)OCc2ccccc2)C[C@@H]2c3cccc4c3c(cn4C)C[C@H]21` the Potency was active: 23.1 µM.
For `CCOc1cc(/C=N/NC(=O)CN(CCc2ccccc2)S(=O)(=O)c2ccc(NC(C)=O)cc2)ccc1O`, the Potency was inconclusive: 3.55 µM [inhibitor, full curve, poor fit].
With `CCc1ccc2oc(-c3cc(N)ccc3O)nc2c1` the Potency was inconclusive: 35.5 µM [inhibitor, single point].
With `COc1ccc([N+](=O)[O-])cc1NC(=O)Cc1ccc(C)cc1` the “activity change, negative = inhibition” value was inactive: 5.17%.
With `CC1CN(c2oc(-c3cccs3)nc2C#N)CC(C)O1` (stereo unspecified) the “activity change, negative = inhibition” value was inactive: -7.8%.
With `COc1ccccc1CNC(=O)CNC(=O)c1ccc(Br)o1` the “activity change, negative = inhibition” value was inactive: 8.16%.
In the case of `CC(NC(=O)c1cc(Sc2ccc(F)cc2F)nc2ccccc12)c1ccccc1` (stereo unspecified), the Potency is reported as inconclusive: 10 µM [inhibitor, partial curve, poor fit].
With `COC(=O)c1ccc(COc2ccc(-c3nnn(CC(N)=O)n3)cc2)cc1` the “activity change, negative = inhibition” value was inactive: -16.4% [at 46.1 µM].
With `Cc1nn(-c2ccccc2)c(Cl)c1/C=C(\C#N)C(=O)NC(C)C` the “activity change, negative = inhibition” value was inactive: -24.9%.
In the case of `CCc1nnc(NC(=O)C2(C)COC(c3ccc(OC)cc3)OC2)s1` (stereo unspecified), the Potency is reported as inconclusive: 6.31 µM [inhibitor, partial curve, poor fit].
With `COc1ccc(CNC(=O)Cc2csc3ccccc23)cc1OC` the Potency was inconclusive: 31.6 µM [activator, single point].
For `CN(C)C1(CNC(=O)C2CCN(S(=O)(=O)c3cc(Cl)ccc3Cl)CC2)CCCCC1`, the Potency was inconclusive: 0.891 µM [activator, single point].
For `O=C(N/N=C/c1cc([N+](=O)[O-])ccc1O)c1cc(-c2ccccc2)nc2ccccc12`, the Potency was active: 8.91 µM.
In the case of `CC(C)OC(=O)CSc1nc(N2CCOCC2)c2c(c1C#N)CC(C)(C)OC2`, the “activity change, negative = inhibition” value is reported as inactive: -13.8% [at 46.1 µM].
For `O=C1c2ccccc2C2=Nc3ccccc3SC(c3ccc(Cl)cc3)C12` (stereo unspecified), the Potency was inconclusive: 11.6 µM [inhibitor, partial curve].
In the case of `CCc1ccc(NC(=O)CSc2nc3nccnc3c(=O)n2CCc2c[nH]c3ccccc23)cc1`, the Potency is reported as inconclusive: 35.5 µM [activator, single point].
For `CC1CCCN(Cc2c(O)ccc3c(=O)c(-c4nc5ccccc5s4)c(N)oc23)C1` (stereo unspecified), the Potency was inconclusive: 14.1 µM [inhibitor, partial curve, poor fit].
For `OCc1ccc(-c2nn(Cc3ccccc3)c3ccccc23)o1`, the Potency was active: 2.91 µM.
For `Cc1cc(-c2nnc(CCC(=O)NCc3ccc(F)c(F)c3)o2)no1`, the “activity change, negative = inhibition” value was inactive: 12.5% [at 46.1 µM].
In the case of `O=C1/C(=C/c2ccc(O)cc2)SC(=S)N1Cc1cccnc1`, the “activity change, negative = inhibition” value is reported as inactive: 7.76%.
For `COc1cc(S(=O)(=O)Nc2ccccc2)ccc1N=Cc1c(C)[nH]n(-c2ccc(C)cc2)c1=O`, the “activity change, negative = inhibition” value was inactive: -4.91%.
With `Cc1oc2nc(SCCCC(=O)NCCCO)nc(N)c2c1C` the Potency was inconclusive: 31.6 µM [inhibitor, single point].
In the case of `O=C(Nc1cc(S(=O)(=O)N2CCOCC2)ccc1Cl)c1ccncc1`, the Potency is reported as inconclusive: 1.12 µM [inhibitor, single point].
With `CCCCCC/C=N/Nc1nnc(Cc2ccccc2)c(=O)[nH]1` the “activity change, negative = inhibition” value was inactive: -2.76%.

Reference: PubChem BioAssay AID540256 (National Center for Advancing Translational Sciences (NCATS), 2011)
% is set by controls: 0 for no effect and ±100 for the full control effect; potency is the fitted concentration of half-maximal effect.
